In test [1] the target is T1, SPR2 (yeast two-hybrid fusion) (Arabidopsis) (UniProt Q9T041).
T1 sequence: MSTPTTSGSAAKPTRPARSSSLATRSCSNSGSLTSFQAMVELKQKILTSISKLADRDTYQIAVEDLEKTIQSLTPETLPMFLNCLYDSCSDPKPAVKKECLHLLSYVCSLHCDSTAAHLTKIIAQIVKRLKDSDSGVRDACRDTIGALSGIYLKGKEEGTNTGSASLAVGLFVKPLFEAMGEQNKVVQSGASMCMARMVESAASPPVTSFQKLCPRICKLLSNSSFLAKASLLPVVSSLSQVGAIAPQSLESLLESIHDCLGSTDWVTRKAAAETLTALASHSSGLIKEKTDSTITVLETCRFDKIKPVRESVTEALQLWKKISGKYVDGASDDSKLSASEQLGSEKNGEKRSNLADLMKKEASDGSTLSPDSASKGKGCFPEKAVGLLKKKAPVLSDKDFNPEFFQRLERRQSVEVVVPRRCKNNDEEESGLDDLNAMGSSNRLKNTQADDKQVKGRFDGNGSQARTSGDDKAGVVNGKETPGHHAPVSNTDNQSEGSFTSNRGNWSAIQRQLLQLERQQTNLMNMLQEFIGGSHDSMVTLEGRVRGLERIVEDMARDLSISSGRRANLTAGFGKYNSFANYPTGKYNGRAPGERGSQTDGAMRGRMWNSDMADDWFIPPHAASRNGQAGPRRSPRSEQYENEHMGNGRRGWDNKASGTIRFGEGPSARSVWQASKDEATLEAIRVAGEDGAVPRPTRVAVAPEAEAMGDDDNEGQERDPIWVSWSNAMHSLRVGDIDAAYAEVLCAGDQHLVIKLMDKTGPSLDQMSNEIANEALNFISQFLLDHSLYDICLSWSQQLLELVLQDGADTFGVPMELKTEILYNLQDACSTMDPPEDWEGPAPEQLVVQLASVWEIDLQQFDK
Put plainly: two-hybrid.

Protein sequences, listed by entry. Tags and fused reporters are not part of them.
UniProt F4JHN2: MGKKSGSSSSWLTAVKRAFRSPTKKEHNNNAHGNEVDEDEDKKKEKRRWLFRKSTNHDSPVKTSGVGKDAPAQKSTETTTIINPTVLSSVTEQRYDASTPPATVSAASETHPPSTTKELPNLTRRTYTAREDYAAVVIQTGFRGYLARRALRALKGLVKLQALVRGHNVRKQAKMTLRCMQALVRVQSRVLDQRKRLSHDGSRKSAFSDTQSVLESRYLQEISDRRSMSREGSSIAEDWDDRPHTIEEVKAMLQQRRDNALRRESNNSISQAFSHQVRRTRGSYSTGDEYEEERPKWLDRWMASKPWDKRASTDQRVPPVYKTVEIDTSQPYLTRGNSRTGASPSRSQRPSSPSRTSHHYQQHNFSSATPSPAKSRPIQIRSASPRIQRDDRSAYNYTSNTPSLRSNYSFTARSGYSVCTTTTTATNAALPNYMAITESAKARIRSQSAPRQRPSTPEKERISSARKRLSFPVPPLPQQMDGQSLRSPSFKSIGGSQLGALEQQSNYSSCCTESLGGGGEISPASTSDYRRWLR
UniProt Q9MAM4: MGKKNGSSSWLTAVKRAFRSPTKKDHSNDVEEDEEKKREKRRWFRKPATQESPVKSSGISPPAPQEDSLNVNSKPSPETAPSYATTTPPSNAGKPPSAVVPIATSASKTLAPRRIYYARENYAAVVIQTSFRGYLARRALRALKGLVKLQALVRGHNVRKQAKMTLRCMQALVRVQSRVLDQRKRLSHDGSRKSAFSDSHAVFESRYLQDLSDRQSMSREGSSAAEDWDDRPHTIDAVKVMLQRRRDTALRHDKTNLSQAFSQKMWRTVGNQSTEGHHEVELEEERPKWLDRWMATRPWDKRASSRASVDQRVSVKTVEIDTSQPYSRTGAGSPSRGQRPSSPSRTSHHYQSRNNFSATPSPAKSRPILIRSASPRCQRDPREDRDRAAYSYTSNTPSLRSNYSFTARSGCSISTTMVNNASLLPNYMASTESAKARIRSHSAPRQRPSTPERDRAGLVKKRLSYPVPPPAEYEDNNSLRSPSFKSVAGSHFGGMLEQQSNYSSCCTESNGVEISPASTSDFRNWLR

Test [2] addresses CaM2 (yeast two-hybrid fusion) (Arabidopsis) (UniProt P0DH97). Put plainly: two-hybrid.
Test [3] addresses CaM3 (yeast two-hybrid fusion) (Arabidopsis) (UniProt P0DH98). As to the kind of experiment: two-hybrid.
Test [4] addresses CaM1 (yeast two-hybrid fusion) (Arabidopsis) (UniProt P0DH95). As to the kind of experiment: two-hybrid.
For test [5], the target named is CaM1-nYFP (Arabidopsis) (UniProt P0DH95). As to the kind of experiment: split reporter.
Test [6] has as its target T2, SPR2-nYFP (Arabidopsis) (UniProt Q9T041).
T2 sequence: T1 sequence
As to the kind of experiment: split reporter.

These are yes or no findings as the source states them, for the method shown. For some of these results: In cells and extracts the contact can be indirect. Some results given as binding are weak or reduced against the parent protein; the word gives no strength. For some of these results: Sequences can lack the tags named with a protein.

Take “AtIQD17 (yeast two-hybrid fusion) (from UniProt F4JHN2 1-534)”: the binding entry is given as “no binding” in test [1], “binds” in test [2], “binds” in test [3] and “binds” in test [4].
Turning to “CaM1 (yeast two-hybrid fusion) (from UniProt P0DH95 1-149)”, the binding entry in test [1] was “no binding”.
On the same count and under the same terms, under “CaM2 (yeast two-hybrid fusion) (from UniProt P0DH97 1-149)” stands “no binding”; under “CaM3 (yeast two-hybrid fusion) (from UniProt P0DH98 1-149)”, “no binding”.
On to “IQD18-AD (yeast two-hybrid fusion) (from UniProt Q9MAM4 1-527)”, for which the binding entry in test [1], in test [2], in test [3] and in test [4] was “binds” in each case.
Regarding IQD18-cYFP (from UniProt Q9MAM4 1-527), the binding result in test [5] and in test [6] was “binds” throughout.

Values taken from paper doi:10.1101/275560.
